# According to the supplement of paper PMC12819154, “High-throughput peptide-centric local stability assay extends protein–ligand identification to membrane proteins, tissues and bacteria” (Nature Structural & Molecular Biology, 2025):
# Sequences of proteins named here, by UniProt entry; tags and fusion partners are left off. A change or cut given only in a name is not applied to a line headed by its entry.
# UniProt Q08093: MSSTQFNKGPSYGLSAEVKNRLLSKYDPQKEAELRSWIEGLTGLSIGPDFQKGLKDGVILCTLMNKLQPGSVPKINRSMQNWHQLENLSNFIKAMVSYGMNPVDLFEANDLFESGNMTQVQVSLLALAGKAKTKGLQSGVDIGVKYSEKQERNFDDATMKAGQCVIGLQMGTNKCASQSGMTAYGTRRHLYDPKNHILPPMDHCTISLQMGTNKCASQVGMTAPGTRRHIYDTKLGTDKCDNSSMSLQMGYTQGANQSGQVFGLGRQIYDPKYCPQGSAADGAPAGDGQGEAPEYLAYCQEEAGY
# UniProt Q3U1J4, whole entry: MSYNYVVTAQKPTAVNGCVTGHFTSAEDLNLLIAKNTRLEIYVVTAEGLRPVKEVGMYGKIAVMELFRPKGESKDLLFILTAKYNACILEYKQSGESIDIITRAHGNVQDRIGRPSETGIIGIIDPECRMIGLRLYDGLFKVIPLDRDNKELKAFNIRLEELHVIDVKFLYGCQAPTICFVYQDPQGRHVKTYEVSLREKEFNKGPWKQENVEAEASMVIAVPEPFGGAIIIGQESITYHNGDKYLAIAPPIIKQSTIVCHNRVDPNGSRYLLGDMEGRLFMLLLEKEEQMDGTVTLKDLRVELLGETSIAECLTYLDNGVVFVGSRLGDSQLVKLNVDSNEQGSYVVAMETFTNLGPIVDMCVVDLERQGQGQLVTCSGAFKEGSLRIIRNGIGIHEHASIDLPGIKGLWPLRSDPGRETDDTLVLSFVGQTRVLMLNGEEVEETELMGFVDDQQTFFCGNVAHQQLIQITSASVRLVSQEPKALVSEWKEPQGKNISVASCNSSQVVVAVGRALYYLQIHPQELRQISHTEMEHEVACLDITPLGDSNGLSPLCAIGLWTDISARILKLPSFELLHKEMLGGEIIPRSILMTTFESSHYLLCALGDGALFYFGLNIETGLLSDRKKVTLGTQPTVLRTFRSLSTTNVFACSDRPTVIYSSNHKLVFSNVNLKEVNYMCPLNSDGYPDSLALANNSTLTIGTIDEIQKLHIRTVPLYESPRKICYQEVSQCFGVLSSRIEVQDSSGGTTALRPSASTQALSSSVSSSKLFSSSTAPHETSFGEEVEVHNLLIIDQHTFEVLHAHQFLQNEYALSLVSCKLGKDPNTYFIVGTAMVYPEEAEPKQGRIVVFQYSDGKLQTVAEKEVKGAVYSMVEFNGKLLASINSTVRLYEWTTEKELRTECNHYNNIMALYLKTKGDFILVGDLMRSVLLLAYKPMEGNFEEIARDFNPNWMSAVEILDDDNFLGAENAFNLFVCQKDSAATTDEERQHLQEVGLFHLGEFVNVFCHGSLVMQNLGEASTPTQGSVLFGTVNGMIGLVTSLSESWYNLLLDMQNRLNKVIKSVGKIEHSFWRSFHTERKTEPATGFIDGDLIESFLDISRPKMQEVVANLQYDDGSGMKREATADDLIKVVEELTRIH
# UniProt Q00262: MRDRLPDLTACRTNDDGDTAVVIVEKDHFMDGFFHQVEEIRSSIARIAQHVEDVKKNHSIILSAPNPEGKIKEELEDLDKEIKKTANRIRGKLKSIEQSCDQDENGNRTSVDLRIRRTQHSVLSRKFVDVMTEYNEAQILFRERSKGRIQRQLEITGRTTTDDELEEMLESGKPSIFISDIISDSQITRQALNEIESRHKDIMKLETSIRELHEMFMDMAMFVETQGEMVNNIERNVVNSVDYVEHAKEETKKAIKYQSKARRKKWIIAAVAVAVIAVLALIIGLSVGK
# UniProt Q45VN2: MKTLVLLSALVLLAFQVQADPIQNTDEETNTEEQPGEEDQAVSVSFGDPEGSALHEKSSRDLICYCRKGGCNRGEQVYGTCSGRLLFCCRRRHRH
# UniProt P97820: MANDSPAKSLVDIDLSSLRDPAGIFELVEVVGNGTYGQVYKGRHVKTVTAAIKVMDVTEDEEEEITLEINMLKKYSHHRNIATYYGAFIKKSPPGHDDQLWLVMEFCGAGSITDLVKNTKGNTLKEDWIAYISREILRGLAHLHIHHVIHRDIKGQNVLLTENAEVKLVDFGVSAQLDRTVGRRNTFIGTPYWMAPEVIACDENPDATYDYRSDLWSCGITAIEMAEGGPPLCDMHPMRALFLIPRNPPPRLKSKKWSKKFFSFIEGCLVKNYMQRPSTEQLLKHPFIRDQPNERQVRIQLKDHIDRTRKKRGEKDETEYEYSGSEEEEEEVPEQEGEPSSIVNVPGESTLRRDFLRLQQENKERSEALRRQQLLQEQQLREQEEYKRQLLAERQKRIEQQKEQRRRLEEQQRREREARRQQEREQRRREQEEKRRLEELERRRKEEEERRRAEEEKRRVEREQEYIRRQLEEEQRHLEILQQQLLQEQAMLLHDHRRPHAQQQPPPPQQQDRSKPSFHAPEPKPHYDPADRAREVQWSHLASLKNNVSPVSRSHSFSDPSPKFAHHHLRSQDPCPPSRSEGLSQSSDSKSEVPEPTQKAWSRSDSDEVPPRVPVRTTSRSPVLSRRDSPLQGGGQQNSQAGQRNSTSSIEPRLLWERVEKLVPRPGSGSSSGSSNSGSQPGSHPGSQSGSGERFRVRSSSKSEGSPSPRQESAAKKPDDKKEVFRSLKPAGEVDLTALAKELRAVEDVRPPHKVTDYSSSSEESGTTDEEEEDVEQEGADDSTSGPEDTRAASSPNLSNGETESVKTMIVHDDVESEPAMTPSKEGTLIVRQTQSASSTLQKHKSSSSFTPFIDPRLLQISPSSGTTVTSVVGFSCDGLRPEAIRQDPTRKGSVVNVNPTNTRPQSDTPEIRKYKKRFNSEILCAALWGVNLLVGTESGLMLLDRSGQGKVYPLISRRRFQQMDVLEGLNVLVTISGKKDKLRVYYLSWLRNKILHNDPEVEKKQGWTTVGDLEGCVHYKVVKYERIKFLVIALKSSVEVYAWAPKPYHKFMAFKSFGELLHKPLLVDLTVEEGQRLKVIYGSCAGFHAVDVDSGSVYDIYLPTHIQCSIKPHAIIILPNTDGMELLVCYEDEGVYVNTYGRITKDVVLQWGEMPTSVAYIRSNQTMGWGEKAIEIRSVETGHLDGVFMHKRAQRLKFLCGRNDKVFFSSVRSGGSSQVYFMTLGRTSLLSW
# UniProt Q3UHX2: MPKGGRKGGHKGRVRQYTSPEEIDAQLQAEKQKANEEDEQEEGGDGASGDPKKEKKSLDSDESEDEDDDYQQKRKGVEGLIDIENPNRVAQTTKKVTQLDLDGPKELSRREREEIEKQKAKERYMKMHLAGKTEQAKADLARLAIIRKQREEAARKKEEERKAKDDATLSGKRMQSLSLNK
# UniProt Q3TN34: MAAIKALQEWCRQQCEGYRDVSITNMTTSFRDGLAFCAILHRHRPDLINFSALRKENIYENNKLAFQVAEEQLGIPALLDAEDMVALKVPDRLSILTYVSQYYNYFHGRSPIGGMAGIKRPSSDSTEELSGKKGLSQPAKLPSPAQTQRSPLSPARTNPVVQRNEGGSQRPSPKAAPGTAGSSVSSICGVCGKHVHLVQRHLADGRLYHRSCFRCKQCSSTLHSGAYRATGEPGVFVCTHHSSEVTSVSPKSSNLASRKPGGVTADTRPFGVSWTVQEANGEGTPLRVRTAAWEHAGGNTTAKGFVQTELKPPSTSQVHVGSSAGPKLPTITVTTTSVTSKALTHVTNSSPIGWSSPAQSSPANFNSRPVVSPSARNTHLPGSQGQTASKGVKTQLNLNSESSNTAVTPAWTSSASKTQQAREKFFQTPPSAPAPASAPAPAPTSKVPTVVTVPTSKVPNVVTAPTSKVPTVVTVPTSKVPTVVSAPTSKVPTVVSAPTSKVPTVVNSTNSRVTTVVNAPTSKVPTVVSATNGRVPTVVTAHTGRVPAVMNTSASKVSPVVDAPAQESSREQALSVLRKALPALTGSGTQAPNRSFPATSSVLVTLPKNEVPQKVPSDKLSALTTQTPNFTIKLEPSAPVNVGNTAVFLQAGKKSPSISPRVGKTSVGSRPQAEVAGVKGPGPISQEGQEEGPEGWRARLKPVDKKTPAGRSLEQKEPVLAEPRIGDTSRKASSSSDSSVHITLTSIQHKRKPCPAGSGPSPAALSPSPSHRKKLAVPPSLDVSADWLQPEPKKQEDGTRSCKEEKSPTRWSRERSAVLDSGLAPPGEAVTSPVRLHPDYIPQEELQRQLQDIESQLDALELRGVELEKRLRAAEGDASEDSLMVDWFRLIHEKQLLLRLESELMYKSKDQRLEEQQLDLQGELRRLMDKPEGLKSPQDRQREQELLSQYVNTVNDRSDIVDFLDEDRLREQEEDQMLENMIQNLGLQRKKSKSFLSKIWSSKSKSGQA
# UniProt Q3TCN2: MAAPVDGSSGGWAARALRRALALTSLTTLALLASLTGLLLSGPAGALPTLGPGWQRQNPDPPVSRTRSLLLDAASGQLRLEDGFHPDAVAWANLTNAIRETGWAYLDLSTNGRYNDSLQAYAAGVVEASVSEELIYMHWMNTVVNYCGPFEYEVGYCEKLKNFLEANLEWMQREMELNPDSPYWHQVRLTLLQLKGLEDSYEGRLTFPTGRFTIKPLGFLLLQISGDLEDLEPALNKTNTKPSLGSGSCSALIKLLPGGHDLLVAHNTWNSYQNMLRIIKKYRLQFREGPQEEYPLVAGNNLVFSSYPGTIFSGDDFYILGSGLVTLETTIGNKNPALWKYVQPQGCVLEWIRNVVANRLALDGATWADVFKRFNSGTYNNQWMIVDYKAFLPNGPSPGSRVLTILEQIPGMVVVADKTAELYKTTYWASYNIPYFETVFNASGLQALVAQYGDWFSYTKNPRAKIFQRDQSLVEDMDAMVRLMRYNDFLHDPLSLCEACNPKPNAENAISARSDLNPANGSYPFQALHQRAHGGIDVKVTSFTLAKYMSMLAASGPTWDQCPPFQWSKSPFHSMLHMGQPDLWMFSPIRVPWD
# UniProt Q02780, whole entry: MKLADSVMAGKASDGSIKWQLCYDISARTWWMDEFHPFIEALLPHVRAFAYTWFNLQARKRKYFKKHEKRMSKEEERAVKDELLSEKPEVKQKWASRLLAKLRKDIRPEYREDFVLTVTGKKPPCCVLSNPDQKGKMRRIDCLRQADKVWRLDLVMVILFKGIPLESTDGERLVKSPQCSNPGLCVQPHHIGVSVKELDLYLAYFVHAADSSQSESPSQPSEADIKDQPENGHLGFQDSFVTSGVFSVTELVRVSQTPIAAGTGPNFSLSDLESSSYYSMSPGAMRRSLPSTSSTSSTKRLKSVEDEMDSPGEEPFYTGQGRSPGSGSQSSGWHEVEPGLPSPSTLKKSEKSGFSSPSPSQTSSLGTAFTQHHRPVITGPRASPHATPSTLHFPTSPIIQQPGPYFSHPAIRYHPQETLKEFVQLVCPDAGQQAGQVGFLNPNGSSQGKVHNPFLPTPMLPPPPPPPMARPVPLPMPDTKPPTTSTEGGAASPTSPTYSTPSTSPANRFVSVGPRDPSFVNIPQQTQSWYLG
# UniProt Q06890, whole entry: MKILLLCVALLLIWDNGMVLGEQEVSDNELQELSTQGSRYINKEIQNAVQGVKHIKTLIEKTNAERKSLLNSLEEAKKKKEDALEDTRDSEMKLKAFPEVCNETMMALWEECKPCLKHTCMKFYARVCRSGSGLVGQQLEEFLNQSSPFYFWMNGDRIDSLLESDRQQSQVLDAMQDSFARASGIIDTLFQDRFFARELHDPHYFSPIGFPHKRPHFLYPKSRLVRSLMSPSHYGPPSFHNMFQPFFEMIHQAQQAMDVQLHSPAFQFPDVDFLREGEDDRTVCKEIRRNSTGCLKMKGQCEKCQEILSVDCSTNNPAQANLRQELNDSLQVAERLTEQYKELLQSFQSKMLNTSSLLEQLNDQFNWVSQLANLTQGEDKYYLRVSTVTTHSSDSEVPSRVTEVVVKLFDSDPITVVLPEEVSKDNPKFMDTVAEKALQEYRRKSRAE
# UniProt P99028: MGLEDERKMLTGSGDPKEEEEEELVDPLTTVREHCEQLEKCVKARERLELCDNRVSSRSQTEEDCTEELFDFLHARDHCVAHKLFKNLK
# UniProt Q3TX08: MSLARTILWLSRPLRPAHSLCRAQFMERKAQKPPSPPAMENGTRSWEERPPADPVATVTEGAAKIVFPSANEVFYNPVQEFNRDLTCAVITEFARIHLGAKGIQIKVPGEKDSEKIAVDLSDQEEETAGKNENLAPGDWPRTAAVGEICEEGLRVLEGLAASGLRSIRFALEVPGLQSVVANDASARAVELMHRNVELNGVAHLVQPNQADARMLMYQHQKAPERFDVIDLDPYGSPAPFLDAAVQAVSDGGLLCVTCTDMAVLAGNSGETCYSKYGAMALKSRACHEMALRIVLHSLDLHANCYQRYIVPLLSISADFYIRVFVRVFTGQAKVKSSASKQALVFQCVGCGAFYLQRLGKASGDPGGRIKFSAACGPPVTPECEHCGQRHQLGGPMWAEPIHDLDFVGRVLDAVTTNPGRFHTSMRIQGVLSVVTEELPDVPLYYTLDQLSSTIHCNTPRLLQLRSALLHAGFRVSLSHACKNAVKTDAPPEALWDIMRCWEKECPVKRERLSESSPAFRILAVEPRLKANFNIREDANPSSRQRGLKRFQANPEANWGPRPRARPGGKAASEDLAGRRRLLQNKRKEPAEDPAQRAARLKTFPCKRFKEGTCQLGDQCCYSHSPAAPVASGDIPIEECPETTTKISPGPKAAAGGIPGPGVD
# This is one part of the list. Most values lie at the level of the controls, where differences are scatter.
# Compound: CN[C@@H]1C[C@H]2O[C@@](C)([C@@H]1OC)n1c3ccccc3c3c4c(c5c6ccccc6n2c5c31)C(=O)NC4 [staurosporine]
# Assay: log2 fold change of pooled soluble protein (PISA), ligand vs vehicle (log2 ratio); higher = more thermally stabilized
# Details: ligand concentration: 20 uM; assay format: PISA pool 52.9/55.5/58.6 C
row,Target,log2 fold change of pooled soluble protein
1,UniProt Q11136,0.133
2,UniProt Q08093,0.0625
3,UniProt Q5F2E7,-0.024
4,UniProt Q2TPA8,-0.0271
5,UniProt Q3ULJ0,-0.103
6,UniProt Q5BLK4,-0.065
7,UniProt Q3U1J4,-0.029
8,UniProt Q05685,-0.0213
9,UniProt Q00262,0.0765
10,UniProt Q3UUQ7,0.042
11,UniProt Q45VN2,0.172
12,UniProt Q5QGU6,-0.0264
13,UniProt Q00897,-0.0476
14,UniProt P97820,-0.195
15,UniProt Q3UZZ6,0.0235
16,UniProt P97798,-0.0477
17,UniProt Q02053,-0.0338
18,UniProt Q3UHX2,-0.0763

row,Target,log2 fold change of pooled soluble protein
1,UniProt Q3TN34,0.258
2,UniProt Q05816,-0.0433
3,UniProt Q3TCN2,0.0762
4,UniProt Q02780,-0.328
5,UniProt P97930,0.124
6,UniProt Q06890,-0.0554
7,UniProt Q3U2C5,-0.059
8,UniProt Q3ULD5,-0.14
9,UniProt Q08857,-0.0986
10,UniProt Q02614,0.37
11,UniProt P99028,0.171
12,UniProt P97807,-0.0891
13,UniProt Q3TWW8,-0.0478
14,UniProt Q3UPF5,-0.0983
15,UniProt Q4VA53,-0.0429
16,UniProt Q3TYS2,-0.237
17,UniProt Q3TX08,0.125
18,UniProt Q52KI8,-0.00835

# For convenience, some entries already given:
row,Target,log2 fold change of pooled soluble protein
6,UniProt Q06890,-0.0554
7,UniProt Q3U2C5,-0.059
